Among the data in PMC8184796 are binding values, retold here.

Amino acid sequences for entries named in this document (tags omitted).
UniProt P51532: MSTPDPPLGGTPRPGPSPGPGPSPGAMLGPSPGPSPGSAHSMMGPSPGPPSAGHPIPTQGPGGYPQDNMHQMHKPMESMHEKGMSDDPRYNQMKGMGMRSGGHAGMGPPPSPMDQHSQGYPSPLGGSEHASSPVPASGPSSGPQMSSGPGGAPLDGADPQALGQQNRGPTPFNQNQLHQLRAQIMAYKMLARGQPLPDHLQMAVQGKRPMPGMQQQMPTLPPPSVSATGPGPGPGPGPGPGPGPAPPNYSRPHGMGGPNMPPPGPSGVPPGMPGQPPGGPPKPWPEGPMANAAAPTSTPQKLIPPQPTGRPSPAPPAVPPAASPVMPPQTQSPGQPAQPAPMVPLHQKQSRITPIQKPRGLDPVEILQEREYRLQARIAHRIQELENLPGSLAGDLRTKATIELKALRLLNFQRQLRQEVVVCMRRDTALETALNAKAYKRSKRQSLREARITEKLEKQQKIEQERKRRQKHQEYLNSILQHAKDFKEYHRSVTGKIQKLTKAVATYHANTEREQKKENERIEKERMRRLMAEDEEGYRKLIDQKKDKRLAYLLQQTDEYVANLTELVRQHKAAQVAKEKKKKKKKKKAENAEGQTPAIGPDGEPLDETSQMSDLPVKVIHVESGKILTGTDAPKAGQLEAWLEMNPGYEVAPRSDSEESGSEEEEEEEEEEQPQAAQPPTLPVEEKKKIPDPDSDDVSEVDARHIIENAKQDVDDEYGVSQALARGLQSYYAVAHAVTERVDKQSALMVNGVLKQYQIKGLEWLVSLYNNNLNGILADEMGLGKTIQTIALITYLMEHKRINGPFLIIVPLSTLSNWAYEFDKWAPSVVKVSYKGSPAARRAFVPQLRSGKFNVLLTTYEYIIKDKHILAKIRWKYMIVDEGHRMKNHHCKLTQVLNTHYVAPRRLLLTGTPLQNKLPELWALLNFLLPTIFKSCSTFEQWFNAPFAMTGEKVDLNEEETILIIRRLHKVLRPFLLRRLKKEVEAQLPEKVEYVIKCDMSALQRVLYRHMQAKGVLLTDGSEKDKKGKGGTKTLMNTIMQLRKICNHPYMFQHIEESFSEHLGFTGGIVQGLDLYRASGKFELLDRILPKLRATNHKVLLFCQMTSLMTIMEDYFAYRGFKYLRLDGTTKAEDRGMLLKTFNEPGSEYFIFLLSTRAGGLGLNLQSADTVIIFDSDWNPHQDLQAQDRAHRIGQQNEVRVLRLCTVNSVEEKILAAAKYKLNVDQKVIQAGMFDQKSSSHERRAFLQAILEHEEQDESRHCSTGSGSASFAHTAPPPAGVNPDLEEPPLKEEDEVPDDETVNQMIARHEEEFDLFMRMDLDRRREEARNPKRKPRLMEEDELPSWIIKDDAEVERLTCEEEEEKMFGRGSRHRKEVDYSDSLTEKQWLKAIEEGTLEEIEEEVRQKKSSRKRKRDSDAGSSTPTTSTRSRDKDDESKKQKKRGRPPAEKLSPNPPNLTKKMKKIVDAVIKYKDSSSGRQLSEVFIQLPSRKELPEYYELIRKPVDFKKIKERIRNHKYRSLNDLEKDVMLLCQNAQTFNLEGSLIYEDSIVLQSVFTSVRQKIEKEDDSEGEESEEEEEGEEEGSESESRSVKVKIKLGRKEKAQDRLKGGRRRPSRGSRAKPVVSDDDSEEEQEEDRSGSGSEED
UniProt Q96GM5: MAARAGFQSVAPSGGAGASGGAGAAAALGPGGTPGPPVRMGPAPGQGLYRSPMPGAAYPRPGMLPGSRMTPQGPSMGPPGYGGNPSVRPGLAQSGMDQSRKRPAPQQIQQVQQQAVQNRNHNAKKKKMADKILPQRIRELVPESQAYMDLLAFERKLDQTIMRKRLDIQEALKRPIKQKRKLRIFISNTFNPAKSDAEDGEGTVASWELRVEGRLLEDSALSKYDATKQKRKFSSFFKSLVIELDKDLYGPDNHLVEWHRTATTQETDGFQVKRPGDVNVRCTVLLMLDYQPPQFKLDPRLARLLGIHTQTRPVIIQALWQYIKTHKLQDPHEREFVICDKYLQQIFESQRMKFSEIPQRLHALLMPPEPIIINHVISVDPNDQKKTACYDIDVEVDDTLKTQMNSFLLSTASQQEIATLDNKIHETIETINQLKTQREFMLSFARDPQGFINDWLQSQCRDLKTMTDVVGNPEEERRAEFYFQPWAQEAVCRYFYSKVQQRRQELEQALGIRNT
UniProt O60264: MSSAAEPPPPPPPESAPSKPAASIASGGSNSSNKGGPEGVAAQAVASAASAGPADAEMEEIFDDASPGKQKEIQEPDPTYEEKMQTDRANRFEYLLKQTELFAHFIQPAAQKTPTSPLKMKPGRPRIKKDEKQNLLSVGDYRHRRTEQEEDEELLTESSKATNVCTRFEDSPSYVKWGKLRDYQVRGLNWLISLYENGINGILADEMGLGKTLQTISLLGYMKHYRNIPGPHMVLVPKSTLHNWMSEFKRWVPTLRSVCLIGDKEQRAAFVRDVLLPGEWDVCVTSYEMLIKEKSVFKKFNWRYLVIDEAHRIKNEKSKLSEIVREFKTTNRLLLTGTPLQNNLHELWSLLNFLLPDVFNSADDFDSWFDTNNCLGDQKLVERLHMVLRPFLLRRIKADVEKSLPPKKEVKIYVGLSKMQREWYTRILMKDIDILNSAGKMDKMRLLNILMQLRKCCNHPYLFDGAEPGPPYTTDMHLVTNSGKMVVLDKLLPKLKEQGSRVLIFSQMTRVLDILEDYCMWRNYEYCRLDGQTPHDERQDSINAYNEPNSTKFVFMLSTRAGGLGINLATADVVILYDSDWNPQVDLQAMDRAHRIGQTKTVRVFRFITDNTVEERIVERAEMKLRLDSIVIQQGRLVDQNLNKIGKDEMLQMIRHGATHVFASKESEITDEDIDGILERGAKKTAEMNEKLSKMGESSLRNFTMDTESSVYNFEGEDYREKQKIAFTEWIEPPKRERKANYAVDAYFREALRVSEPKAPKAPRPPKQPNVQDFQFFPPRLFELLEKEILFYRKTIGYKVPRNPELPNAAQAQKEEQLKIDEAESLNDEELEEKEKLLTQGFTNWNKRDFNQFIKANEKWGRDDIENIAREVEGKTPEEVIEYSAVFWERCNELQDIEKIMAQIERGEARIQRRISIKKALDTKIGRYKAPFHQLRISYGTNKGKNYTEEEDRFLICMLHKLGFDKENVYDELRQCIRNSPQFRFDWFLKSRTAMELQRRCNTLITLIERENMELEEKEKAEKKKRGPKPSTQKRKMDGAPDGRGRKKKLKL

Like-named read-outs stand apart in the source and are kept apart here. These are yes or no findings as the source states them, for the method shown. Binding seen in cells or lysates may run through a third protein. These calls come from enrichment with a bait or labelling near it, and not all partners need be listed. For some of these results: No binding means not detected with the bait. Sequences can lack the tags named with a protein.

Test [1] has as its target T1, Myc/DDK tagged FBXO32 (UniProt Q969P5).
T1 sequence: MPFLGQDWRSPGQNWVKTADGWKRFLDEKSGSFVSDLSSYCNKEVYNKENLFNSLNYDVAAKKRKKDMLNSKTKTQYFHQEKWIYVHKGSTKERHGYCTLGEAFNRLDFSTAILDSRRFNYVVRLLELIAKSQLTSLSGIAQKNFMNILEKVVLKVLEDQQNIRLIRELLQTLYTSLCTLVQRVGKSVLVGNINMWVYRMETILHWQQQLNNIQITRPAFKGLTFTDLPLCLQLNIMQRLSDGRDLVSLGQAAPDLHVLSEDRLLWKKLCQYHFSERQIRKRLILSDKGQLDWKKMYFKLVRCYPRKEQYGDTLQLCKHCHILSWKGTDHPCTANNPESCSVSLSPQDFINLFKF
Nature of the test: affinity purification with mass spectrometry; tandem affinity purification of Myc/DDK-FBXO32 from cell lysate (2 mg; TRIS-HCl pH7.5 50 mM, NaCl 15 mM, Triton X-100 1%): anti-DDK immunoprecipitation, elution with DDK peptide, then anti-Myc immunoprecipitation, SDS-PAGE, nano-HPLC MS; parental cells as control; two experiments.

Test [2] addresses T1, Myc/DDK tagged FBXO32. The description is as above. The source holds these as a separate data set.

With “SMARCA4 (BRG1) (from UniProt P51532 1-1647)”, the binding entry in test [1] was “binds”.
On to “SMARCD1 (BAF60a) (from UniProt Q96GM5 1-515)”, for which the binding entry in test [1] is on record as “binds”.
Still for that read-out and setting: with SMARCA5 (from UniProt O60264 1-1052) the entry was “binds”.

B1: REST (protein, UniProt Q13127 1-1097)
chain: MATQVMGQSSGGGGLFTSSGNIGMALPNDMYDLHDLSKAELAAPQLIMLANVALTGEVNGSCCDYLVGEERQMAELMPVGDNNFSDSEEGEGLEESADIKGEPHGLENMELRSLELSVVEPQPVFEASGAPDIYSSNKDLPPETPGAEDKGKSSKTKPFRCKPCQYEAESEEQFVHHIRVHSAKKFFVEESAEKQAKARESGSSTAEEGDFSKGPIRCDRCGYNTNRYDHYTAHLKHHTRAGDNERVYKCIICTYTTVSEYHWRKHLRNHFPRKVYTCGKCNYFSDRKNNYVQHVRTHTGERPYKCELCPYSSSQKTHLTRHMRTHSGEKPFKCDQCSYVASNQHEVTRHARQVHNGPKPLNCPHCDYKTADRSNFKKHVELHVNPRQFNCPVCDYAASKKCNLQYHFKSKHPTCPNKTMDVSKVKLKKTKKREADLPDNITNEKTEIEQTKIKGDVAGKKNEKSVKAEKRDVSKEKKPSNNVSVIQVTTRTRKSVTEVKEMDVHTGSNSEKFSKTKKSKRKLEVDSHSLHGPVNDEESSTKKKKKVESKSKNNSQEVPKGDSKVEENKKQNTCMKKSTKKKTLKNKSSKKSSKPPQKEPVEKGSAQMDPPQMGPAPTEAVQKGPVQVEPPPPMEHAQMEGAQIRPAPDEPVQMEVVQEGPAQKELLPPVEPAQMVGAQIVLAHMELPPPMETAQTEVAQMGPAPMEPAQMEVAQVESAPMQVVQKEPVQMELSPPMEVVQKEPVQIELSPPMEVVQKEPVKIELSPPIEVVQKEPVQMELSPPMGVVQKEPAQREPPPPREPPLHMEPISKKPPLRKDKKEKSNMQSERARKEQVLIEVGLVPVKDSWLLKESVSTEDLSPPSPPLPKENLREEASGDQKLLNTGEGNKEAPLQKVGAEEADESLPGLAANINESTHISSSGQNLNTPEGETLNGKHQTDSIVCEMKMDTDQNTRENLTGINSTVEEPVSPMLPPSAVEEREAVSKTALASPPATMAANESQEIDEDEGIHSHEGSDLSDNMSEGSDDSGLHGARPVPQESSRKNAKEALAVKAAKGDFVCIFCDRSFRKGKDYSKHLNRHLVNVYYLEEAAQGQE
B1: the binding entry in test [2] is “no binding”.
